Results are given in words; binding and its absence hold for the method and conditions named. Binding seen in cells or lysates may run through a third protein.

The chains behind the UniProt entries cited, without tags or fusion partners. Where a name states a change or a piece, a line headed by the entry shows the natural chain unless it says otherwise. Residues count along the entry.
UniProt P23023, residues 1-397: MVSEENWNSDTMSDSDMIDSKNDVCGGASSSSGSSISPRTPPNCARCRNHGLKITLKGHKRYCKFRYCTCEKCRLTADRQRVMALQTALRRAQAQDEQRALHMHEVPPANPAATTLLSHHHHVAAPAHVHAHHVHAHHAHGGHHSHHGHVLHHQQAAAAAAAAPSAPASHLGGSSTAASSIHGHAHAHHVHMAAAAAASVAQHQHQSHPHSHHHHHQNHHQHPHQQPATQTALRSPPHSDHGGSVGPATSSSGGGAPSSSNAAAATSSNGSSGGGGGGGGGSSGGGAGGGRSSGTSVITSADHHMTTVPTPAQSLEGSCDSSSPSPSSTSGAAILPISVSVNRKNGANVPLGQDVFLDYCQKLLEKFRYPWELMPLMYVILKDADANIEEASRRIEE

For assay [1], the target named is GST-AbdB-NΔHD (Drosophila) (UniProt P09087). The assay can be described thus: pull-down; GST pulldown: GST-tagged AbdB proteins or GST alone as bait; bacterially expressed His-tagged Dsx proteins as input cell lysates; Western blot; three repetitions; only the target purified. (In western blotting, separated proteins are transferred to a membrane and probed.)
Assay [2] addresses GST-AbdB-N (truncated version of AbdB-r, aa residues 89-270) (Drosophila) (UniProt P09087). The assay is described as above.

For “His-Dsx^CR (Dsx common region, aa residues 1-397) (from UniProt P23023 1-397) (domain or fragment)”, the binding result in assay [1] is “no binding”. For “DsxΔDBD (aa residues 101-397) (from UniProt P23023) (domain or fragment)”, in assay [2], the binding entry is “no binding”.

The values above are taken from publication PMC6737903.
